According to the supplement of paper PMC10849652:
The list shows a part of the results.

Amino acid sequences for entries named in this document (tags omitted). A change or cut given only in a name is not applied to a line headed by its entry.
UniProt Q2TBE0: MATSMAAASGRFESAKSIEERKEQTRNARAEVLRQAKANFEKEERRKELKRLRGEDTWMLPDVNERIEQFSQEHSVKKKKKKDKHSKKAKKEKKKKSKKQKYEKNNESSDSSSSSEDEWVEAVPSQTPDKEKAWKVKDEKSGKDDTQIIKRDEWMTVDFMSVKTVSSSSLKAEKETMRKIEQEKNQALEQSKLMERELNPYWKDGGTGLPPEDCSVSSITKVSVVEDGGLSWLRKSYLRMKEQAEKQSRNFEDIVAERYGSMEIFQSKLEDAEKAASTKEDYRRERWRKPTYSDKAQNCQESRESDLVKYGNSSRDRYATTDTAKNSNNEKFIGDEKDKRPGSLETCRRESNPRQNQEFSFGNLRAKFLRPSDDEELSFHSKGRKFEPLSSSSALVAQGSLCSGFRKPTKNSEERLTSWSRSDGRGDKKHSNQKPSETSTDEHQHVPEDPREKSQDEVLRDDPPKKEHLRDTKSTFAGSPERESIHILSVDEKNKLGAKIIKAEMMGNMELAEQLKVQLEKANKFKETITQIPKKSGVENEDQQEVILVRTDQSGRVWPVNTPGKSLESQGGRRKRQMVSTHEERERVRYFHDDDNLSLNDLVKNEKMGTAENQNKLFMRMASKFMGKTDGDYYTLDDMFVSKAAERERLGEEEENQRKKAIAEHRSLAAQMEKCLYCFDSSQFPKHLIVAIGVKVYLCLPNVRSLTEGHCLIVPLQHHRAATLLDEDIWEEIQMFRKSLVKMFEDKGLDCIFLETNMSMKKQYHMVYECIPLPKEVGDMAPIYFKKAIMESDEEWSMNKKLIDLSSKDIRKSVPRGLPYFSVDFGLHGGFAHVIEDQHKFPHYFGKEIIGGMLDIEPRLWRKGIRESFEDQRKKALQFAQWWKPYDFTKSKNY
UniProt P50461: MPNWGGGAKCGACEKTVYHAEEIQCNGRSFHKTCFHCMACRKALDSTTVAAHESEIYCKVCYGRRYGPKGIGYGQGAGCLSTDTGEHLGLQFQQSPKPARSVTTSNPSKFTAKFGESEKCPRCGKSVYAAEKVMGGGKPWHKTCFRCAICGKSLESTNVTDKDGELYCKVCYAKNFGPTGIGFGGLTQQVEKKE
UniProt Q9H773: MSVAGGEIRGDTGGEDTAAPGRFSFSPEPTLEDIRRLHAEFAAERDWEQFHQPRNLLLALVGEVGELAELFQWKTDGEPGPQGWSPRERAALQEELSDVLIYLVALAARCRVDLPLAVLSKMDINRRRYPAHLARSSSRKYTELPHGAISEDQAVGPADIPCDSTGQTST
UniProt Q6UX04: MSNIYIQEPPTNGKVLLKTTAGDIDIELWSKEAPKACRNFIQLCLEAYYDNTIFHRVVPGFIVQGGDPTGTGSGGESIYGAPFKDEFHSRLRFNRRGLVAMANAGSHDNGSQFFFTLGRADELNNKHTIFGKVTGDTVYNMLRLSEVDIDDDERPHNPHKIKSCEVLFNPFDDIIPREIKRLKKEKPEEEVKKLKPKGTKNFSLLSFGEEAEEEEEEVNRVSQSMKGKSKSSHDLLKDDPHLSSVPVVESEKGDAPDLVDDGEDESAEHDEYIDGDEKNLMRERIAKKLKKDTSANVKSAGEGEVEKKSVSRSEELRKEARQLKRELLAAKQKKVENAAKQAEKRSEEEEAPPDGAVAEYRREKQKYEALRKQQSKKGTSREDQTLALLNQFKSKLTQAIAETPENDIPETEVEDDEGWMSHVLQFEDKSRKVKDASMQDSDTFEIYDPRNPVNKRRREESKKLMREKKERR
UniProt P09668: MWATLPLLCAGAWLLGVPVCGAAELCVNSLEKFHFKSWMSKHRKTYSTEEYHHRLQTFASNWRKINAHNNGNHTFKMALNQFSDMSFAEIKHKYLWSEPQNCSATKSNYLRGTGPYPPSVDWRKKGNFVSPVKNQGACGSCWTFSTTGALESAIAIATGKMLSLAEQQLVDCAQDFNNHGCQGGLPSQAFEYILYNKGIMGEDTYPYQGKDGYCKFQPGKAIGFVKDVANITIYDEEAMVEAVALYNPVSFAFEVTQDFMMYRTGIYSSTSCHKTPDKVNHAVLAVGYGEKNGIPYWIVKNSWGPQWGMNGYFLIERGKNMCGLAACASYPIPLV
UniProt Q16643: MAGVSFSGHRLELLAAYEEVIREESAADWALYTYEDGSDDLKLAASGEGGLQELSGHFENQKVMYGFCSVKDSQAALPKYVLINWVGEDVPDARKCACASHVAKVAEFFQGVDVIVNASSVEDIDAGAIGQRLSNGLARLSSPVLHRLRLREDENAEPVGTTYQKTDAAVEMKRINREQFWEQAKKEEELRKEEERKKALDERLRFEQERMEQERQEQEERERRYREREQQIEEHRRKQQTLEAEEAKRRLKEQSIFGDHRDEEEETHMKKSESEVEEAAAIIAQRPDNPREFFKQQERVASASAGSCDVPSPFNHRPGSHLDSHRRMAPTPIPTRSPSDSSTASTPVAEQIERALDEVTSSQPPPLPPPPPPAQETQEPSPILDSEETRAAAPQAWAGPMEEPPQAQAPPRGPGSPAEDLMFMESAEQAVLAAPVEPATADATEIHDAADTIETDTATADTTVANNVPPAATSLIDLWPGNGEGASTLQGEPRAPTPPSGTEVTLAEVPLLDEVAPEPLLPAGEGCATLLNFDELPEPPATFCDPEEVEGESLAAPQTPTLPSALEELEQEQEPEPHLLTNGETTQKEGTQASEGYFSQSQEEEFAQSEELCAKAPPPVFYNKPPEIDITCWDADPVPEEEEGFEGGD
UniProt P33240: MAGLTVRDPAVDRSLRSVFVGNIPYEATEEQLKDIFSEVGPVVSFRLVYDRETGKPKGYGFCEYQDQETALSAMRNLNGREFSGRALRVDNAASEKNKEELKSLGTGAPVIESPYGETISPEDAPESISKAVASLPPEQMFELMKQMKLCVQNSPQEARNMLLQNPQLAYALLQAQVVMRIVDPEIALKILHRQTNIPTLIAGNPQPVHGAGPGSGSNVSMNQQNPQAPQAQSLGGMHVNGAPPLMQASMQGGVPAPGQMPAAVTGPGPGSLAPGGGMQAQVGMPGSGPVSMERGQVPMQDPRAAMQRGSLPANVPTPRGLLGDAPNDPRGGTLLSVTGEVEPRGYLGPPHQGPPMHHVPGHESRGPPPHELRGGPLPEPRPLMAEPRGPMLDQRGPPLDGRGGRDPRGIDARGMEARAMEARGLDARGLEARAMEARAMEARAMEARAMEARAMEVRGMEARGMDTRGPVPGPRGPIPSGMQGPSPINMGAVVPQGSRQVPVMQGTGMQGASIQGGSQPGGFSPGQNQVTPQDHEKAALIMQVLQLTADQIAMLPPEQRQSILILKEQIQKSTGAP
UniProt P98082: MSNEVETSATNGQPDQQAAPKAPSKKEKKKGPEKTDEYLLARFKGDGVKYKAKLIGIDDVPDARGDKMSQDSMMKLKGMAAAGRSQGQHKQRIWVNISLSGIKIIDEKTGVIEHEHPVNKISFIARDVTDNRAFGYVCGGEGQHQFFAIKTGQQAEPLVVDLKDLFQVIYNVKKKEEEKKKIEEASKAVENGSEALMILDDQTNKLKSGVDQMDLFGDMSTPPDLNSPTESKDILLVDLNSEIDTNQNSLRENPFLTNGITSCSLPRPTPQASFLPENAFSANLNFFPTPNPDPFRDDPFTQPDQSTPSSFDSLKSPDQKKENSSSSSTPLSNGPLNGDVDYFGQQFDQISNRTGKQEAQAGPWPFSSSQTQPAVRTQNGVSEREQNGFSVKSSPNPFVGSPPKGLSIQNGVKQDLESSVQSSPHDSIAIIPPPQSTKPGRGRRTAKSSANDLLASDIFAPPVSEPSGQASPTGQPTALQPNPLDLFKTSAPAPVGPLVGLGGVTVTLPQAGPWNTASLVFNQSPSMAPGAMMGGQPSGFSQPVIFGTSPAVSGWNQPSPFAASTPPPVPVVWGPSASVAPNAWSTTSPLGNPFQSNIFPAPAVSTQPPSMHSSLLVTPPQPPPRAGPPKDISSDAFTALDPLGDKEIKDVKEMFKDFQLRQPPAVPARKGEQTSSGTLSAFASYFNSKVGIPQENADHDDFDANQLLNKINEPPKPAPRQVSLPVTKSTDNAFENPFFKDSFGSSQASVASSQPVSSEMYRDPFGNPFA
UniProt Q9UK59: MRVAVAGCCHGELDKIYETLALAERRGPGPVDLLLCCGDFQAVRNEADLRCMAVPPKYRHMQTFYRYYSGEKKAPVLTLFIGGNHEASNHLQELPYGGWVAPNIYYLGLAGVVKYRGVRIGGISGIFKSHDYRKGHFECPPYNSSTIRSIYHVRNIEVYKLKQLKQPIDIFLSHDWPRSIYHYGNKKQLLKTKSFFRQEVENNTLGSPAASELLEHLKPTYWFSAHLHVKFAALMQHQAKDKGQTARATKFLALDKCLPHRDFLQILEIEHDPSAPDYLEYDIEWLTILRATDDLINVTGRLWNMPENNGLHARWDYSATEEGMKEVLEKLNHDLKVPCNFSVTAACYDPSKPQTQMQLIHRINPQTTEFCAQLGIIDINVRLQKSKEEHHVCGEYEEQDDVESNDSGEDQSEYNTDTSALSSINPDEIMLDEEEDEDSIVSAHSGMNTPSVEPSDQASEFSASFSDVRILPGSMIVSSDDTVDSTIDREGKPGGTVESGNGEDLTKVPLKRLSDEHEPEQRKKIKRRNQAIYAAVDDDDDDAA
UniProt Q96SQ9: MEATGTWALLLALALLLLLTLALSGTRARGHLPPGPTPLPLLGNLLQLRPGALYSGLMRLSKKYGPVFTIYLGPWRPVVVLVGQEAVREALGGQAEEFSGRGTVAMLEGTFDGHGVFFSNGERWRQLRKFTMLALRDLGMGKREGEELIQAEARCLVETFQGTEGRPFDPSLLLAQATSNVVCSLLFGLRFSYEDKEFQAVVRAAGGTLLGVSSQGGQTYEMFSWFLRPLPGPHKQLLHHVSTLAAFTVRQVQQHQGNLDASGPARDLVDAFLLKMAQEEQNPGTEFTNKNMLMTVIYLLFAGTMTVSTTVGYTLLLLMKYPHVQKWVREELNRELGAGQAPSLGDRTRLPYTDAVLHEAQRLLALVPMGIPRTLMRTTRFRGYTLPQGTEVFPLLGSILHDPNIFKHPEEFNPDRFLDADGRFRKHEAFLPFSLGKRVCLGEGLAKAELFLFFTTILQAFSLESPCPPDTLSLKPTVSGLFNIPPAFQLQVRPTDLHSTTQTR
UniProt Q9BTE1, whole entry, looked up: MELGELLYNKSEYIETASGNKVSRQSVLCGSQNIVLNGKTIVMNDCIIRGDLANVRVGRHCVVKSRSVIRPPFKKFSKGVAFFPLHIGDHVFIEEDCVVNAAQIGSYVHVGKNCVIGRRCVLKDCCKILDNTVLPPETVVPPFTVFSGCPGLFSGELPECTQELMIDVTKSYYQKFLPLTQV
UniProt Q7Z7A3: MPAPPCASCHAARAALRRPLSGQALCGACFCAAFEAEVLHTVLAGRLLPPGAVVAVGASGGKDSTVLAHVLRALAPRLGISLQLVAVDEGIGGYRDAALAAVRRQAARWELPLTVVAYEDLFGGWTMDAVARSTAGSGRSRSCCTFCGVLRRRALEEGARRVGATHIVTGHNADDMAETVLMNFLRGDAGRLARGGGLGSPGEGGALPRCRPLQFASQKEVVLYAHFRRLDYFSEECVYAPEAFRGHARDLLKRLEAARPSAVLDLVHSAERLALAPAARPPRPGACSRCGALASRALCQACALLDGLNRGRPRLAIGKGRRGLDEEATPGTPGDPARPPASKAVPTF
UniProt Q9HCG8: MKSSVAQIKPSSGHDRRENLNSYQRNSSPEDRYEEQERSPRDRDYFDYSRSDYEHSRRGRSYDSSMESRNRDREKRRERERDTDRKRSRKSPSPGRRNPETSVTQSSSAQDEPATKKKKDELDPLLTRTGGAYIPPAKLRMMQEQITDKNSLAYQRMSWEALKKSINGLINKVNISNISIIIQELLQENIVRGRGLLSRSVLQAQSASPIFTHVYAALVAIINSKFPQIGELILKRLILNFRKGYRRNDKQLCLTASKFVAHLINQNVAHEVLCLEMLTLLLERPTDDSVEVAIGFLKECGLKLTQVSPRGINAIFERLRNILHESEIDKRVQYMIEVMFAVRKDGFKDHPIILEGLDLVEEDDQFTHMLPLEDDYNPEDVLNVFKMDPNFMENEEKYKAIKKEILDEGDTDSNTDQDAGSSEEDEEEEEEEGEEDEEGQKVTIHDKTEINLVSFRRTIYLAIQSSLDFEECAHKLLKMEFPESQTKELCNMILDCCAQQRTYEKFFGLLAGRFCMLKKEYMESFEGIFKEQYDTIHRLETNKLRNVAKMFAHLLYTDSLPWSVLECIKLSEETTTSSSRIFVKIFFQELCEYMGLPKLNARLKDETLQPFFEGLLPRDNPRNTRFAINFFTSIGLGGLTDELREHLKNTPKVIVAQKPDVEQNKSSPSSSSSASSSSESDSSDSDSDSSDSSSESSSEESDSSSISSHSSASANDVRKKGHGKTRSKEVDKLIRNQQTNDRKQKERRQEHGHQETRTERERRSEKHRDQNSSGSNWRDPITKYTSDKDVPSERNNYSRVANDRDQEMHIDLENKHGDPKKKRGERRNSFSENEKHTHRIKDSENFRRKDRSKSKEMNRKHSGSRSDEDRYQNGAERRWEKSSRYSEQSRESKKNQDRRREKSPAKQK

Experiments:
Test in all cases: log2 fold change, soluble protein after heating vs DMSO (PISA); higher = thermal stabilisation; K562 cells, 10 uM, 30 min; active = over 0.2 and 3.5 SD of the protein, either way, in both replicates (recomputed)
[1] = compound: CS(=O)(=O)c1ccc(-c2cnc(N)c(C(=O)Nc3ccccc3)n2)cc1
How it was run: (§1)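 K562 cells at 2×10^6 cells/mL were given 10 μM compound for 30 min. Aliquots then went through 3 min of heating across 48°C-58°C, were pooled, and were extracted in PBS with 0.5% NP-40 at 4°C, and the supernatant after 21,000xg for 90 min was quantified by TMTpro 16plex LC-MS/MS with channel sums equalised. Thermal stability relative to control samples, from duplicates, is given as log2 fold change.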

crizotinib = compound: C[C@@H](Oc1cc(-c2cnn(C3CCNCC3)c2)cnc1N)c1c(Cl)ccc(F)c1Cl [crizotinib]
How it was run: as §1

[2] = compound: C[C@H](C1=CC=C(C=C1)C(=O)NC2=C3C=CNC3=NC=C2)N
How it was run: as §1

gandotinib = compound: Cc1cc(Nc2cc(CN3CCOCC3)c3nc(C)c(Cc4ccc(Cl)cc4F)n3n2)n[nH]1 [gandotinib]
How it was run: as §1

[3] = compound: Cc1cc(SCc2sc(-c3ccc(C(F)(F)F)cc3)nc2C)ccc1OCC(=O)O
How it was run: as §1

doramapimod = compound: Cc1ccc(-n2nc(C(C)(C)C)cc2NC(=O)Nc2ccc(OCCN3CCOCC3)c3ccccc23)cc1 [doramapimod]
How it was run: as §1

ispinesib = compound: Cc1ccc(C(=O)N(CCCN)[C@@H](c2nc3cc(Cl)ccc3c(=O)n2Cc2ccccc2)C(C)C)cc1 [ispinesib]
How it was run: as §1

tozasertib = compound: Cc1cc(Nc2cc(N3CCN(C)CC3)nc(Sc3ccc(NC(=O)C4CC4)cc3)n2)n[nH]1 [tozasertib]
How it was run: as §1

duvelisib = compound: C[C@H](Nc1ncnc2nc[nH]c12)c1cc2cccc(Cl)c2c(=O)n1-c1ccccc1 [duvelisib]
How it was run: as §1

[4] = compound: C[C@@H]1COCCN1C2=NC(=NC(=C2)C3(CC3)S(=O)(=O)C)C4=C5C=CNC5=CC=C4
How it was run: as §1

| Target | log2 fold change [1] | log2 fold change (crizotinib) | log2 fold change [2] | log2 fold change (gandotinib) | log2 fold change [3] | log2 fold change (doramapimod) | log2 fold change (ispinesib) | log2 fold change (tozasertib) | log2 fold change (duvelisib) | log2 fold change [4] |
| --- | --- | --- | --- | --- | --- | --- | --- | --- | --- | --- |
| CWF19L2 (UniProt Q2TBE0) | inactive: -0.024 | inactive: -0.034 | inactive: 0.027 | active: 0.777 | inactive: -0.001 | inactive: -0.021 | inactive: -0.115 |  |  |  |
| CSRP3 (UniProt P50461) | inactive: 0.015 | inactive: 0.077 | inactive: 0.018 | inactive: 0.007 |  | inactive: -0.201 | inactive: -0.07 | inactive: -0.051 |  |  |
| CYSTM1 (UniProt Q9H1C7) | inactive: -0.038 | inactive: -0.344 | inactive: 0.032 |  | inactive: -0.134 | inactive: -0.007 | inactive: -0.185 | inactive: -0.03 | inactive: -0.088 |  |
| DCTPP1 (UniProt Q9H773) | inactive: -0.025 | inactive: 0.142 | inactive: -0.177 | inactive: -0.004 | inactive: -0.064 | inactive: -0.002 | inactive: 0.203 |  |  | inactive: 0.179 |
| CTSL (UniProt P07711) | inactive: 0.025 | active: -0.489 | inactive: 0.021 | inactive: 0.006 | inactive: -0.013 | inactive: 0.018 | inactive: -0.199 |  |  | inactive: -0.02 |
| CYFIP1 (UniProt Q7L576) | inactive: 0.038 | inactive: -0.029 | inactive: -0.042 | inactive: -0.079 | inactive: 0.038 | inactive: -0.026 | inactive: 0.031 |  |  | inactive: 0.063 |
| DCAF16 (UniProt Q9NXF7) | inactive: 0.058 | inactive: 0.001 | inactive: -0.103 | inactive: 0.069 | inactive: 0.17 | inactive: -0.005 | inactive: 0.036 |  |  | inactive: 0.176 |
| CWC27 (UniProt Q6UX04) | inactive: 0.03 | inactive: 0.14 | inactive: -0.001 | inactive: 0.033 | inactive: 0.169 | inactive: -0.091 | inactive: -0.017 |  |  | inactive: 0.145 |
| CSTF3 (UniProt Q12996) | inactive: 0.004 | inactive: -0.07 | inactive: 0.019 | inactive: 0 | inactive: -0.031 | inactive: -0.022 | inactive: 0.082 |  |  | inactive: 0.025 |
| CTSH (UniProt P09668) | inactive: 0.032 | active: -0.249 | inactive: -0.02 | inactive: 0.031 | inactive: -0.068 | inactive: 0.023 | inactive: -0.221 |  |  | inactive: 0.074 |
| CTSA (UniProt P10619) | inactive: 0.032 | active: -0.563 | inactive: -0.036 | inactive: 0.043 | inactive: 0.003 | inactive: 0.009 | active: -0.237 |  |  | inactive: 0.002 |
| CYB561A3 isoform 2 (UniProt Q8NBI2) | inactive: 0 | inactive: -0.05 | inactive: -0.073 | inactive: -0.103 | inactive: -0.014 | inactive: 0.021 | inactive: -0.139 |  |  |  |
| DBN1 isoform 3 (UniProt Q16643) | inactive: -0.063 | inactive: 0.088 | inactive: 0.044 | inactive: -0.009 | inactive: -0.02 | inactive: 0.02 | inactive: 0.071 |  |  | inactive: -0.075 |
| CSTF2 (UniProt P33240) | inactive: 0.016 | inactive: 0.075 | inactive: -0.042 | inactive: 0.048 | inactive: -0.011 | inactive: 0.028 | inactive: 0.068 |  |  | inactive: 0.14 |
| DAB2 (UniProt P98082) | inactive: -0.04 | inactive: -0.099 | inactive: -0.052 | inactive: -0.021 | inactive: 0.069 | inactive: 0.022 | inactive: -0.091 |  |  | inactive: 0.049 |
| CTNNB1 (UniProt P35222) | active: 0.666 | inactive: 0.024 | inactive: -0.102 | inactive: 0.336 | inactive: -0.024 | inactive: 0.047 | inactive: 0.078 |  |  | inactive: -0.087 |

Rewritten bar-delimited: part of the list above
Target | log2 fold change [1] | log2 fold change (crizotinib) | log2 fold change [2] | log2 fold change (gandotinib) | log2 fold change [3] | log2 fold change (doramapimod) | log2 fold change (ispinesib) | log2 fold change (tozasertib) | log2 fold change (duvelisib) | log2 fold change [4]
CWC27 (UniProt Q6UX04) | inactive: 0.03 | inactive: 0.14 | inactive: -0.001 | inactive: 0.033 | inactive: 0.169 | inactive: -0.091 | inactive: -0.017 |  |  | inactive: 0.145
CTSA (UniProt P10619) | inactive: 0.032 | active: -0.563 | inactive: -0.036 | inactive: 0.043 | inactive: 0.003 | inactive: 0.009 | active: -0.237 |  |  | inactive: 0.002

The results go on:

| Target | log2 fold change [1] | log2 fold change (crizotinib) | log2 fold change [2] | log2 fold change (gandotinib) | log2 fold change [3] | log2 fold change (doramapimod) | log2 fold change (ispinesib) | log2 fold change (tozasertib) | log2 fold change (duvelisib) | log2 fold change [4] |
| --- | --- | --- | --- | --- | --- | --- | --- | --- | --- | --- |
| DCAF13 (UniProt Q9NV06) | inactive: -0.086 | inactive: 0.067 | inactive: 0.273 | inactive: 0.221 | inactive: -0.033 | inactive: 0.173 | inactive: -0.1 |  |  | active: -0.538 |
| DBR1 (UniProt Q9UK59) | inactive: -0.034 | inactive: -0.022 | inactive: -0.014 | inactive: 0.003 | inactive: 0.01 | inactive: 0.02 | inactive: 0.058 |  |  | inactive: 0.061 |
| DCAF4L2 (UniProt Q8NA75) | inactive: 0.064 | inactive: 0.48 | inactive: -0.069 | inactive: -0.025 | inactive: -0.011 | inactive: 0.258 | inactive: -0.069 | inactive: -0.004 | inactive: 0.036 |  |
| DCUN1D1 (UniProt Q96GG9) | inactive: -0.027 | inactive: -0.061 | inactive: -0.067 | inactive: -0.059 | inactive: 0.002 | inactive: -0.053 | inactive: 0.036 |  |  | inactive: -0.047 |
| DBT (UniProt P11182) | inactive: -0.024 | inactive: -0.01 | inactive: 0.054 | inactive: 0.005 | inactive: -0.042 | inactive: 0.029 | inactive: 0.009 |  |  | inactive: -0.014 |
| DAXX (UniProt Q9UER7) | inactive: 0.154 | inactive: 0.098 | inactive: 0.106 | inactive: 0.313 | inactive: 0.006 | inactive: 0 | inactive: -0.062 |  |  |  |
| CYP2S1 isoform 2 (UniProt Q96SQ9) | inactive: -0.121 | inactive: 0.125 | inactive: -0.038 | inactive: -0.146 | inactive: 0.207 | inactive: 0.121 | inactive: -0.047 |  | inactive: 0.632 |  |
| CUX1 isoform 2 (UniProt Q13948) | inactive: -0.217 | inactive: -0.063 | inactive: -0.063 | inactive: -0.046 | inactive: 0.002 | inactive: -0.015 | inactive: -0.008 |  |  | inactive: 0.029 |
| DCTN5 (UniProt Q9BTE1) | inactive: 0.006 | inactive: 0.048 | inactive: -0.08 | inactive: -0.024 | inactive: -0.066 | inactive: -0.009 | inactive: 0.066 | inactive: -0.033 | inactive: 0.023 |  |
| CTU1 (UniProt Q7Z7A3) | inactive: 0.005 | inactive: -0.132 | inactive: -0.032 | inactive: -0.015 | inactive: 0.058 | inactive: -0.049 | inactive: -0.082 |  |  | inactive: 0.081 |
| DCP2 (UniProt Q8IU60) | inactive: -0.211 | active: 0.779 | inactive: 0.009 |  | inactive: 0.095 | inactive: 0.147 | inactive: -0.045 |  |  | inactive: 0.119 |
| CUX1 isoform 3 (UniProt P39880) | inactive: 0.02 | inactive: -0.023 | inactive: -0.002 | inactive: -0.048 | inactive: -0.026 | inactive: 0.019 | inactive: -0.101 |  |  | inactive: 0.086 |
| CTSS (UniProt P25774) | inactive: -0.007 | inactive: 0.063 | inactive: 0.059 | inactive: 0.018 | inactive: 0.045 | inactive: 0.043 | inactive: 0.049 |  |  |  |
| CYBA (UniProt P13498) | inactive: 0.069 | inactive: -0.108 | inactive: -0.045 | inactive: -0.231 | inactive: 0.04 | inactive: 0.01 | active: -0.488 |  |  | inactive: 0.024 |
| CWC22 (UniProt Q9HCG8) |  | inactive: -0.026 |  |  |  | inactive: -0.042 |  |  |  |  |
